No constants are given. Whether binding was seen depends on the method and setting. Some binding calls cover weakened binding; strength is not graded here. For some assays here: Tags and fused reporters may be left off the sequences shown.
Key:
[1] = molecular target: MBP-Th-LGR4 LRR1-14 (MBP-Th-hLGR4.23-383-H6) (human) (UniProt Q9BXB1); experiment: TR-FRET competition binding to LGR4 ECD
[2] = molecular target: Biotin-ZNRF3 ECD (Avi tag-ZNRF3.56-216-H6, MBP removed by thrombin) (human) (UniProt Q9ULT6); experiment: summary of the ZNRF3 ECD binding assays
[3] = molecular target: Biotin-ZNRF3 ECD (Avi tag-ZNRF3.56-216-H6, MBP removed by thrombin) (human) (UniProt Q9ULT6); experiment: AlphaLISA luminescent proximity assay, saturation format, 3 nM Biotin-ZNRF3 ECD

Chains of the proteins cited; added tags and fusions are not shown. Lines headed by an entry give the natural chain unless they say otherwise; changes in a name come on top. A line that says so, or that is headed by a name, gives the form on record, which may keep a tag or linker. Residues count along the entry.
MBP-Th-LGR4 LRR1-14 (MBP-Th-hLGR4.23-383-H6) (Q9BXB1, form named): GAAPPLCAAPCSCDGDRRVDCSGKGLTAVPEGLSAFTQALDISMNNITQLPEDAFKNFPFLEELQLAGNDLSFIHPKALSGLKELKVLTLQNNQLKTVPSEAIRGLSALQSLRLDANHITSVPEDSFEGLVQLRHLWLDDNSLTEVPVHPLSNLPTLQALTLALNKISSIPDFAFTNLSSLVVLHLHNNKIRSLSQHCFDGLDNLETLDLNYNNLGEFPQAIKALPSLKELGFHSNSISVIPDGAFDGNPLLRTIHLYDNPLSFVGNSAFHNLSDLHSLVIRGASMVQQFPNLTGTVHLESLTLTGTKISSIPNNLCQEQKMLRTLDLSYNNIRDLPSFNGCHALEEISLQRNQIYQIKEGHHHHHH
Biotin-ZNRF3 ECD (Avi tag-ZNRF3.56-216-H6, MBP removed by thrombin) (Q9ULT6, form named): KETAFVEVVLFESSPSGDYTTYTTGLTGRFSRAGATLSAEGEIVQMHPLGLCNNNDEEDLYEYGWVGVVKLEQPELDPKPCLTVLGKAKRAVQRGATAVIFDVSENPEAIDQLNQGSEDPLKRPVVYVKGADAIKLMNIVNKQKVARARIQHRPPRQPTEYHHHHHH
UniProt Q2I0M5, residues 20-234: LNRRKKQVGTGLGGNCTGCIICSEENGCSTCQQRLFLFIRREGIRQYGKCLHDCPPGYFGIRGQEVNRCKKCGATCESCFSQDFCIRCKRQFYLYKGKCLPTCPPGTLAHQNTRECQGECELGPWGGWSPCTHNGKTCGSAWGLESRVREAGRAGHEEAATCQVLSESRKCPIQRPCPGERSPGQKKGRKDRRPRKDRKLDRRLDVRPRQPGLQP

Row | binding [1] | binding [2] | binding [3] | Molecule
1 | binds | – | – | commercial full-length RSPO4 produced in CHO cells (R&D Systems, catalog number 4575-RS-025/CF) (from UniProt Q2I0M5 20-234) (ligand)
2 | – | binds | binds | MBP-Th-RSPO1 Fu1-Fu2-H6 (ligand, Produced in E. coli; also called MBP-Th-hRSPO1 Fu1-Fu2-H6; not shown: thrombin cut site (Th) linker) SRGIKGKRQRRISAEGSQACAKGCELCSEVNGCLKCSPKLFILLERNDIRQVGVCLPSCPPGYFDARNPDMNKCIKCKIEHCEACFSHNFCTKCKEGLYLHKGRCYPACPEGSSAANGTMECSSPHHHHHH
3 | – | binds | binds | MBP-Th-RSPO3 Fu1-Fu2-H6 (MBP-Th-RSPO3.22-146-H6) (ligand, Produced in E. coli; also called pAP355; not shown: thrombin cut site (Th) linker) QNASRGRRQRRMHPNVSQGCQGGCATCSDYNGCLSCKPRLFFALERIGMKQIGVCLSSCPSGYYGTRYPDINKCTKCKADCDTCFNKNFCTKCKSGFYLHLGKCLDNCPEGLEANNHTMECVSIVHHHHHH

Reference: patent US20160152947A1 (BOARD OF REGENTS OF THE UNIVERSITY OF OKLAHOMA, published 2016)
